Test results reported in paper PMC11272775, “Epigenetic memory is governed by an effector recruitment specificity toggle in Heterochromatin Protein 1” (Nature Communications, 2024).
These are yes or no findings as the source states them, for the method shown. For part of these data: In cells and extracts the contact can be indirect. Some entries that bind do so weakly or less than the wild type. For part of these data: Tags and fused reporters may be left off the sequences shown.

Key:
Epe1-V5 (S. pombe) = molecular target: T1, Epe1-V5 (S. pombe) (UniProt O94603); experiment: co-IP; V5 antibody cross-linked to Protein G magnetic beads, S. pombe cell lysates (30 mM HEPES pH 7.5, 100 mM NaCl, 0.25% Triton X-100, 5 mM MgCl2, 1 mM DTT), 3 h at 4 °C; Epe1 detected with a V5 antibody, Swi6 with a primary antibody
T1 sequence: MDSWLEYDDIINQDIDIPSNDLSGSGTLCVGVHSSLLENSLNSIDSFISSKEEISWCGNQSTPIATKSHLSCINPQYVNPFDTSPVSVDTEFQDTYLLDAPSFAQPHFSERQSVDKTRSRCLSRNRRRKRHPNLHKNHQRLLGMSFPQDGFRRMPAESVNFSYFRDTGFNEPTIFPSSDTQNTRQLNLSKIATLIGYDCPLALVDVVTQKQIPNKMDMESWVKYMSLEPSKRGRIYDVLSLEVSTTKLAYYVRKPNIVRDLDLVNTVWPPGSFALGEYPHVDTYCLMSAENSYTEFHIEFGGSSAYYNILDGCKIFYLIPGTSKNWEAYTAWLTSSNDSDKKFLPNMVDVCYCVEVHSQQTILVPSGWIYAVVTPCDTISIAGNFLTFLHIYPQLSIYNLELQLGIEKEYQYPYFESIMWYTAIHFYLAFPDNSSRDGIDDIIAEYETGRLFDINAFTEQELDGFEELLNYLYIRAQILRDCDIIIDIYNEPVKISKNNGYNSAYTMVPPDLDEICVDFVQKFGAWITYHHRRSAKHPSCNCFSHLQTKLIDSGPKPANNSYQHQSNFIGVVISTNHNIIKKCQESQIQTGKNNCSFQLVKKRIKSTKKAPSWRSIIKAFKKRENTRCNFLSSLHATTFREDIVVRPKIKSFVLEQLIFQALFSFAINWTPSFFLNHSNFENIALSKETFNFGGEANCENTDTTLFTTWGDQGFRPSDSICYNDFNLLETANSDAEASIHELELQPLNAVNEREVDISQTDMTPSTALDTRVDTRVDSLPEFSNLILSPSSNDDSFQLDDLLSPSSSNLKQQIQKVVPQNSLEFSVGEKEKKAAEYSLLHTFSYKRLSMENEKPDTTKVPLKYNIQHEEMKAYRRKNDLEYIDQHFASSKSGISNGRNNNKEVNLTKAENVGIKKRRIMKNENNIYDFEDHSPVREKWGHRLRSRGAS

[1] = molecular target: T2, 3X FLAG-Swi6 L315E (recombinant) (S. pombe), P40381; experiment: pull-down; recombinant 3X FLAG-Swi6 immobilised on FLAG M2 beads, three concentrations of recombinant MBP-Epe1; 20 mM HEPES pH 7.5, 150 mM NaCl, 5 mM MgCl2, 10% glycerol, 0.25% Triton X-100, 1 mM DTT; 2 h at 4 °C; blots with anti-MBP and M2 Flag antibodies; both purified; conditions: remark: other sources report otherwise
T2 chain: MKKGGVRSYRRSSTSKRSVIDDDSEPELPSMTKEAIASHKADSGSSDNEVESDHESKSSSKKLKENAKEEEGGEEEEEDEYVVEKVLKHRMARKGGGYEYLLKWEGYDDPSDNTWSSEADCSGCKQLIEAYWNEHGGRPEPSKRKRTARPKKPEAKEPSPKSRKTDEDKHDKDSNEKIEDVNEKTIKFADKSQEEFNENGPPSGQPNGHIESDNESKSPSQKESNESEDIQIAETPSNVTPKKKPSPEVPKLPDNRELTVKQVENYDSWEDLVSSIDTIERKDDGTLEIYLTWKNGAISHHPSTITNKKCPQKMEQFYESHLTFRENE

[2] = molecular target: Swi6-L315E (recombinant, full-length) (S. pombe) (UniProt P40381); experiment: mass photometry; full-length recombinant Swi6 at 2.5-20 nM in 20 mM HEPES pH 7.5, 100 mM KCl; apparent dimerization constants (Kdim) from the relative abundance of monomer and dimer; dimer to monomers; both purified

B1: Swi6-WT (protein, UniProt P40381 1-328)
chain: MKKGGVRSYRRSSTSKRSVIDDDSEPELPSMTKEAIASHKADSGSSDNEVESDHESKSSSKKLKENAKEEEGGEEEEEDEYVVEKVLKHRMARKGGGYEYLLKWEGYDDPSDNTWSSEADCSGCKQLIEAYWNEHGGRPEPSKRKRTARPKKPEAKEPSPKSRKTDEDKHDKDSNEKIEDVNEKTIKFADKSQEEFNENGPPSGQPNGHIESDNESKSPSQKESNESEDIQIAETPSNVTPKKKPSPEVPKLPDNRELTVKQVENYDSWEDLVSSIDTIERKDDGTLEIYLTWKNGAISHHPSTITNKKCPQKMLQFYESHLTFRENE
Epe1-V5 (S. pombe)
  binding: binds

B2: MBP-Epe1, O94603 1-948 (protein)
chain: MDSWLEYDDIINQDIDIPSNDLSGSGTLCVGVHSSLLENSLNSIDSFISSKEEISWCGNQSTPIATKSHLSCINPQYVNPFDTSPVSVDTEFQDTYLLDAPSFAQPHFSERQSVDKTRSRCLSRNRRRKRHPNLHKNHQRLLGMSFPQDGFRRMPAESVNFSYFRDTGFNEPTIFPSSDTQNTRQLNLSKIATLIGYDCPLALVDVVTQKQIPNKMDMESWVKYMSLEPSKRGRIYDVLSLEVSTTKLAYYVRKPNIVRDLDLVNTVWPPGSFALGEYPHVDTYCLMSAENSYTEFHIEFGGSSAYYNILDGCKIFYLIPGTSKNWEAYTAWLTSSNDSDKKFLPNMVDVCYCVEVHSQQTILVPSGWIYAVVTPCDTISIAGNFLTFLHIYPQLSIYNLELQLGIEKEYQYPYFESIMWYTAIHFYLAFPDNSSRDGIDDIIAEYETGRLFDINAFTEQELDGFEELLNYLYIRAQILRDCDIIIDIYNEPVKISKNNGYNSAYTMVPPDLDEICVDFVQKFGAWITYHHRRSAKHPSCNCFSHLQTKLIDSGPKPANNSYQHQSNFIGVVISTNHNIIKKCQESQIQTGKNNCSFQLVKKRIKSTKKAPSWRSIIKAFKKRENTRCNFLSSLHATTFREDIVVRPKIKSFVLEQLIFQALFSFAINWTPSFFLNHSNFENIALSKETFNFGGEANCENTDTTLFTTWGDQGFRPSDSICYNDFNLLETANSDAEASIHELELQPLNAVNEREVDISQTDMTPSTALDTRVDTRVDSLPEFSNLILSPSSNDDSFQLDDLLSPSSSNLKQQIQKVVPQNSLEFSVGEKEKKAAEYSLLHTFSYKRLSMENEKPDTTKVPLKYNIQHEEMKAYRRKNDLEYIDQHFASSKSGISNGRNNNKEVNLTKAENVGIKKRRIMKNENNIYDFEDHSPVREKWGHRLRSRGAS
[1]
  binding: no binding

B3: Swi6-L315E (recombinant, full-length) (protein, UniProt P40381 1-328)
chain: MKKGGVRSYRRSSTSKRSVIDDDSEPELPSMTKEAIASHKADSGSSDNEVESDHESKSSSKKLKENAKEEEGGEEEEEDEYVVEKVLKHRMARKGGGYEYLLKWEGYDDPSDNTWSSEADCSGCKQLIEAYWNEHGGRPEPSKRKRTARPKKPEAKEPSPKSRKTDEDKHDKDSNEKIEDVNEKTIKFADKSQEEFNENGPPSGQPNGHIESDNESKSPSQKESNESEDIQIAETPSNVTPKKKPSPEVPKLPDNRELTVKQVENYDSWEDLVSSIDTIERKDDGTLEIYLTWKNGAISHHPSTITNKKCPQKMEQFYESHLTFRENE
[2]
  binding: no binding (tested: 2.5–20 nM)
